Tested on: human primary airway epithelial cells
Assay: IL-6 release from IFNγ + TNFα-stimulated human primary airway epithelial cells
Assay type: cell-based
Procedure: In order to determine whether any of the inhibitory effects of the JAK inhibitors could be attributed to cell death, MTT assays were performed at the end of every experiment. […] In order to address this issue, the levels of IL-6 released from cells stimulated with IFNγ + TNFα were measured.

C[C@@H]1CCN(C(=O)N2CCCC2)C[C@@H]1N(C)c1ncnc2[nH]ccc12 [PF956980]
IC50 for IL-6 release, fold greater than for inhibition of CXCR3 chemokine release: ~ 5 fold

From article PMC4474874, “Effect of JAK Inhibitors on Release of CXCL9, CXCL10 and CXCL11 from Human Airway Epithelial Cells” (PLoS ONE, 2015)
